Measurements reported in PubChem BioAssay AID504805 (Drosophila RNAi Screening Center, 2011)
The reagents shown are a selection, not the whole library. 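Phenotypes are words from visual inspection of images, not measured scores.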 The numbers tell different reagents against one gene apart. A plus sign joins genes that one reagent is predicted to hit.

- Screen: 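Knock-downs that cause poly(A) RNA to build up in the nucleus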 (primary screen)
- Cells: Drosophila S2R+ cells
- Knock-down reagent: long dsRNA against Drosophila genes, 0.25 µg dsRNA per well
- Timing: 4 days
- Measured: 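Poly(A) RNA detected by in situ hybridisation with a fluorescent oligo-dT probe, nuclei stained with a DNA dye; images judged by eye, phenotype noted per replicate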

Gene	reagent	phenotype, replicate 1	phenotype, replicate 2
CG40583 (retired record) (GeneID 5740259)	1	poly(A) RNA held back in the nucleus	
Nup98-96 (GeneID 42816)	1	poly(A) RNA held back in the nucleus	poly(A) RNA held back in the nucleus
Cpr47Ee (GeneID 36193)	1	poly(A) RNA held back in the nucleus	poly(A) RNA held back in the nucleus
CG31183 (GeneID 41927)	1	poly(A) RNA held back in the nucleus	
tipE (GeneID 38504)	1	poly(A) RNA held back in the nucleus	
Fmo-2 (GeneID 35561)	1	poly(A) RNA held back in the nucleus	
glob3 (GeneID 40726)	1	poly(A) RNA held back in the nucleus	
anchor (GeneID 39965)	1	poly(A) RNA held back in the nucleus	
Dph3 (GeneID 41352)	1	poly(A) RNA held back in the nucleus	poly(A) RNA held back in the nucleus
CG32086 (GeneID 326195)	1	poly(A) RNA held back in the nucleus	
Smu1 (GeneID 42272)	1	poly(A) RNA held back in the nucleus	poly(A) RNA held back in the nucleus
chp (GeneID 43690)	1	poly(A) RNA held back in the nucleus	
RpS24 (GeneID 37589)	1	poly(A) RNA held back in the nucleus	
RpS12 (GeneID 39480)	1	poly(A) RNA held back in the nucleus	
Sf3b1 (GeneID 33235)	1	poly(A) RNA held in nucleus; cells rounded	poly(A) RNA held in nucleus; cells rounded
CG9801 (GeneID 41044)	1	poly(A) RNA held back in the nucleus	
soti (GeneID 41748)	1	poly(A) RNA held back in the nucleus	
Acyp (GeneID 34807)	1	poly(A) RNA held back in the nucleus	
stv (GeneID 39518)	1	poly(A) RNA held back in the nucleus	
CG4440 (GeneID 50458)	1	poly(A) RNA held back in the nucleus	
CG6153 (GeneID 34675)	1	poly(A) RNA held back in the nucleus	
RunxA (GeneID 4379817)	1	poly(A) RNA held back in the nucleus	
Top3beta (GeneID 31565)	1	poly(A) RNA held back in the nucleus	
RPA1 (GeneID 40972)	1	poly(A) RNA held back in the nucleus	
CG7384 (GeneID 34447)	1	poly(A) RNA held back in the nucleus	
Trl + CG42507	1	poly(A) RNA held back in the nucleus	
Gbs-76A (GeneID 40102)	1	poly(A) RNA held back in the nucleus	
eIF5 (GeneID 32566)	1	poly(A) RNA held back in the nucleus	
CG18558 (GeneID 33482)	1	poly(A) RNA held back in the nucleus	
mew (GeneID 32275)	1	poly(A) RNA held back in the nucleus	
eas (GeneID 32585)	1	poly(A) RNA held back in the nucleus	
CG42534 (GeneID 43298)	1	poly(A) RNA held back in the nucleus	
CG42534 (GeneID 43298)	2	poly(A) RNA held back in the nucleus	
CG10359 (GeneID 38434)	1	poly(A) RNA held back in the nucleus	
sip1 (GeneID 44238)	1	poly(A) RNA held back in the nucleus	
sip1 (GeneID 44238)	2	poly(A) RNA held back in the nucleus	
CG34149 (GeneID 4379861)	1	poly(A) RNA held back in the nucleus	
Sry-beta (GeneID 43570)	1	poly(A) RNA held back in the nucleus	
Syt1 (GeneID 33473)	1	poly(A) RNA held back in the nucleus	
Syt1 (GeneID 33473)	2	poly(A) RNA held back in the nucleus	
CG18599 (GeneID 42191)	1	poly(A) RNA held back in the nucleus	
RpL31 (GeneID 35988)	1	poly(A) RNA held back in the nucleus	cells look to be dying
RpLP2 (GeneID 36855)	1	poly(A) RNA held back in the nucleus	
l(1)10Bb (GeneID 32069)	1	poly(A) RNA held back in the nucleus	poly(A) RNA held back in the nucleus
Ae2 (GeneID 39147)	1	poly(A) RNA held back in the nucleus	
SmF (GeneID 36314)	1	poly(A) RNA held back in the nucleus	poly(A) RNA held back in the nucleus
Ndc80 (GeneID 32316)	1	poly(A) RNA held back in the nucleus	
CG9514 (GeneID 32418)	1	poly(A) RNA held back in the nucleus	
dnt (GeneID 35207)	1	poly(A) RNA held back in the nucleus	
zuc (GeneID 34609)	1	poly(A) RNA held back in the nucleus	
CG3857 (GeneID 2768908)	1	poly(A) RNA held back in the nucleus	
MtnC (GeneID 42416)	1	poly(A) RNA held back in the nucleus	
CG10841 (GeneID 41665)	1	poly(A) RNA held back in the nucleus	
CG13062 (GeneID 39799)	1	poly(A) RNA held back in the nucleus	
CycE (GeneID 34924)	1	poly(A) RNA held back in the nucleus	poly(A) RNA held back in the nucleus
Rrp47 (GeneID 32558)	1	poly(A) RNA held back in the nucleus	
CG4629 (GeneID 33284)	1	poly(A) RNA held back in the nucleus	
bru1 (GeneID 34648)	1	poly(A) RNA held back in the nucleus	
CG6621 (GeneID 41319)	1	poly(A) RNA held back in the nucleus	
CG9368 (GeneID 40135)	1	poly(A) RNA held back in the nucleus	
osk (GeneID 41066)	1	poly(A) RNA held back in the nucleus	
Nf1 (GeneID 43149)	1	poly(A) RNA held back in the nucleus	
RpLP0 (GeneID 40451)	1	poly(A) RNA held back in the nucleus	poly(A) RNA held back in the nucleus
CG33543 (GeneID 3346207)	1	poly(A) RNA held back in the nucleus	
CG9098 (GeneID 33840)	1	poly(A) RNA held back in the nucleus	
Syngr (GeneID 36533)	1	poly(A) RNA held back in the nucleus	
Nup153 (GeneID 32630)	1	poly(A) RNA held back in the nucleus	poly(A) RNA held back in the nucleus
CG3918 (GeneID 31585)	1	poly(A) RNA held back in the nucleus	poly(A) RNA held back in the nucleus
CG2063 (GeneID 35952)	1	poly(A) RNA held back in the nucleus	poly(A) RNA held back in the nucleus
CG1523 (GeneID 43400)	1	poly(A) RNA held back in the nucleus	
exp (GeneID 36276)	1	poly(A) RNA held back in the nucleus	poly(A) RNA held back in the nucleus
Hey (GeneID 35764)	1	poly(A) RNA held back in the nucleus	cells possibly dying
CG32767 (GeneID 31430)	1	poly(A) RNA held back in the nucleus	
Wdr82 (GeneID 34153)	1	poly(A) RNA held back in the nucleus	
CG8119 (GeneID 32500)	1	poly(A) RNA held back in the nucleus	
CG4004 (GeneID 32226)	1	poly(A) RNA held back in the nucleus	
CG34347 (GeneID 5740668)	1	poly(A) RNA held back in the nucleus	
Tango2 (GeneID 32319)	1	poly(A) RNA held back in the nucleus	
CG6443 (GeneID 34477)	1	poly(A) RNA held back in the nucleus	
Pdp1 (GeneID 45588)	1	poly(A) RNA held back in the nucleus	poly(A) RNA held back in the nucleus
prom (GeneID 246493)	1	poly(A) RNA held back in the nucleus	
CG12964 (GeneID 36714)	1	poly(A) RNA held back in the nucleus	poly(A) RNA held back in the nucleus
CG33270 (GeneID 2768982)	1	poly(A) RNA held back in the nucleus	
CG9119 (GeneID 38124)	1	poly(A) RNA held back in the nucleus	
CG30376 (GeneID 246576)	1	poly(A) RNA held back in the nucleus	poly(A) RNA held back in the nucleus
CG7031 (GeneID 42704)	1	poly(A) RNA held back in the nucleus	
GlcAT-P (GeneID 39262)	1	poly(A) RNA held back in the nucleus	
x16 (GeneID 33967)	1	poly(A) RNA held back in the nucleus	
Sry-alpha (GeneID 43571)	1	poly(A) RNA held back in the nucleus	
Pink1 (GeneID 31607)	1	poly(A) RNA held back in the nucleus	
bnl (GeneID 42356)	1	poly(A) RNA held back in the nucleus	
CG7990 (GeneID 32909)	1	poly(A) RNA held back in the nucleus	
CG3184 (GeneID 31608)	1	poly(A) RNA held back in the nucleus	
swm (GeneID 35235)	1	poly(A) RNA held back in the nucleus	poly(A) RNA held back in the nucleus
CG6791 (GeneID 41391)	1	poly(A) RNA held back in the nucleus	
Cyp313a4 (GeneID 41563)	1	poly(A) RNA held back in the nucleus	
TM9SF3 (GeneID 38635)	1	poly(A) RNA held back in the nucleus	
Ilp4 (GeneID 39152)	1	poly(A) RNA held back in the nucleus	
RpL36 (GeneID 31009)	1	poly(A) RNA held back in the nucleus	
CG11977 (GeneID 41076)	1	poly(A) RNA held back in the nucleus	
Sumo (GeneID 33981)	1	poly(A) RNA held back in the nucleus	
Pitslre (GeneID 40292)	1	poly(A) RNA held back in the nucleus	poly(A) RNA held back in the nucleus
JIL-1 (GeneID 39241)	1	poly(A) RNA held back in the nucleus	
mtm (GeneID 33845)	1	poly(A) RNA held back in the nucleus	
Socs36E (GeneID 35085)	1	poly(A) RNA held back in the nucleus	poly(A) RNA held back in the nucleus
